Data as given in PubChem BioAssay AID602196 (INSERM, 2012).
Purpose: 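Modifiers of cisplatin sensitivity in A549 cells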. Cell system: human A549 lung cancer cells. Reagent: siRNA pair against human genes. Timing: 48 h transfection before cisplatin; time from cisplatin to read-out not stated. Challenge: cisplatin at a dose killing half of control-siRNA cells; exact dose and duration not given. Read-out: 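Shift in cisplatin death relative to control siRNA, from -50 (all cells die) to +50 (no cells die); siRNAs harmful on their own scored 0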. Scale: two-siRNA summed score (-2 to +2): higher = both siRNAs protect from cisplatin killing; -2 means both sensitise; mean protection from cisplatin (shift in death) and protection from cisplatin (shift in death), siRNA C and protection from cisplatin (shift in death), siRNA D: higher = protection from cisplatin killing. Call rule: 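Each siRNA scores 0 if harmful alone by LDH or WST-1, otherwise +1 if it reduces and -1 if it increases cisplatin killing; a gene is active when both siRNAs agree (sum +2 or -2)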. Calls: active = both siRNAs shift cisplatin killing the same way; inactive = no consistent shift, or siRNA harmful alone.
In all, the deposit lists about 23,000 reagents; below is a random part of them. Of all reagents, 455 (2%) are marked active. 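Active includes both protection and sensitisation; some change values fall well beyond the stated -50 to +50 range.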 Reagents against one gene are numbered here. The record does not give: the amount of reagent.

Gene | reagent | two-siRNA summed score (-2 to +2) | mean protection from cisplatin (shift in death) (%) | protection from cisplatin (shift in death), siRNA C (%) | protection from cisplatin (shift in death), siRNA D (%) | call
PPP1R12B | 1 | 0 | 2.2 | -2.4 | 6.7 | inactive
ITGB1BP2 | 1 | 0 | 2.3 | 8.6 | -4 | inactive
CLEC2A | 1 | 1 | 9.5 | 19.1 | 0 | inactive
HIPK4 | 1 | 1 | 9.4 | 5.2 | 13.5 | inactive
LOC401911 | 1 | 0 | 16.6 | 26.6 | 6.5 | inactive
ADAM12 | 1 | 0 | -6.9 | -6.5 | -7.3 | inactive
ARHGEF26 | 1 | 0 | 10.2 | 3.5 | 16.8 | inactive
LOC131909 | 1 | 0 | 6.6 | 5.4 | 7.8 | inactive
XYLB | 1 | 1 | 17.5 | 1.8 | 33.2 | inactive
LOC392549 | 1 | 1 | 21.9 | 19.8 | 24 | inactive
ZFP42 | 1 | 0 | 5.5 | 7.1 | 3.8 | inactive
LOC283780 | 1 | 0 | 14.1 | 18.7 | 9.6 | inactive
KIAA0363 | 1 | 0 | 19 | 30.9 | 7.1 | inactive
LOC401819 | 1 | 0 | -23.9 | -22.8 | -25 | inactive
UGT1A4 | 1 | 0 | 21.3 | 2.6 | 40 | inactive
RTN4IP1 | 1 | 1 | 13.1 | 22.7 | 3.5 | inactive
LINC01098 | 1 | 0 | 1.2 | 4.1 | -1.8 | inactive
RESP18 | 1 | 0 | 1.1 | -1.4 | 3.6 | inactive
MS4A14 | 1 | 1 | 1.3 | -13 | 15.7 | inactive
H2AZ2 | 1 | 0 | 0.6 | -3 | 4.2 | inactive
OR13C2 | 1 | 0 | 3.2 | 6 | 0.5 | inactive
NRBP1 | 1 | 1 | 13.4 | 32.1 | -5.3 | inactive
MTCL2 | 1 | 0 | 0.6 | 1.7 | -0.6 | inactive
MTCL2 | 2 | 0 | 2.4 | -2.2 | 7 | inactive
VWA2 | 1 | 0 | -0.6 | 3.2 | -4.5 | inactive
LOC439963 | 1 | 0 | 8.7 | 12 | 5.4 | inactive
ASB2 | 1 | 0 | -16 | -18.6 | -13.4 | inactive
LOC440329 | 1 | 1 | 34.4 | 55.7 | 13.2 | inactive
B3GAT1-DT | 1 | 0 | 5.6 | 15 | -3.9 | inactive
RBFOX2 | 1 | 0 | -5.9 | -9.7 | -2.1 | inactive
LOC402377 | 1 | 0 | 9.8 | 19.6 | -0.1 | inactive
LOC440102 | 1 | 1 | 12.2 | 11.7 | 12.7 | inactive
SNTG1 | 1 | 0 | -1.5 | 2.7 | -5.6 | inactive
EEF2KMT | 1 | 1 | 12.5 | 9.8 | 15.1 | inactive
MOB2 | 1 | 0 | -17 | -22 | -11.9 | inactive
ZNF507 | 1 | 1 | 10.5 | 14.5 | 6.4 | inactive
LOC442274 | 1 | -1 | -7.2 | -7.2 | -7.1 | inactive
CCDC25 | 1 | -1 | -0.9 | 19.8 | -21.6 | inactive
ETFA | 1 | 0 | -4.9 | -12.2 | 2.4 | inactive
SLC35E3 | 1 | 0 | 2.6 | 6 | -0.8 | inactive
C1orf21 | 1 | 0 | 3.4 | 2 | 4.8 | inactive
WDCP | 1 | 0 | 7.1 | 13.8 | 0.4 | inactive
MTSS2 | 1 | 0 | 16.3 | 25.8 | 6.8 | inactive
ADAMTS19 | 1 | 0 | -5.7 | -15.3 | 3.9 | inactive
FUZ | 1 | 0 | -12.1 | -16.8 | -7.4 | inactive
LOC392563 | 1 | 0 | 9.3 | 7.8 | 10.8 | inactive
MS4A6A | 1 | 0 | -22.2 | -31.9 | -12.6 | inactive
NIPSNAP3B | 1 | 0 | -5.4 | 11.3 | -22 | inactive
ZNF563 | 1 | 0 | 7.5 | 11.7 | 3.3 | inactive
SORCS1 | 1 | 1 | 8.9 | 22.7 | -4.8 | inactive
PPFIBP2 | 1 | 1 | 16.4 | 9.7 | 23.2 | inactive
LOC284988 | 1 | 0 | 20.5 | 5.9 | 35 | inactive
CLHC1 | 1 | 0 | 6.4 | 8 | 4.8 | inactive
LOC440956 | 1 | 0 | 11.9 | 4 | 19.8 | inactive
ZNF629 | 1 | 0 | 4.4 | 5.8 | 3 | inactive
LOC442219 | 1 | 2 | 13.6 | 16.6 | 10.6 | active
OR4F4 | 1 | 0 | 3.6 | 6.1 | 1.1 | inactive

Copied from the list.
Entry for ITGB1BP2 under “protection from cisplatin (shift in death), siRNA C (%)”: 8.6
LOC440956, two-siRNA summed score (-2 to +2) → 0
Under “two-siRNA summed score (-2 to +2)”, LOC439963 shows 0
Value of CLEC2A under “protection from cisplatin (shift in death), siRNA D (%)”: 0
For “protection from cisplatin (shift in death), siRNA D (%)”, MOB2 shows -11.9
